The assay concerns the target T1, asialoglycoprotein receptor (human) (UniProt P07306+P07307).
T1 sequence (looked up) 1: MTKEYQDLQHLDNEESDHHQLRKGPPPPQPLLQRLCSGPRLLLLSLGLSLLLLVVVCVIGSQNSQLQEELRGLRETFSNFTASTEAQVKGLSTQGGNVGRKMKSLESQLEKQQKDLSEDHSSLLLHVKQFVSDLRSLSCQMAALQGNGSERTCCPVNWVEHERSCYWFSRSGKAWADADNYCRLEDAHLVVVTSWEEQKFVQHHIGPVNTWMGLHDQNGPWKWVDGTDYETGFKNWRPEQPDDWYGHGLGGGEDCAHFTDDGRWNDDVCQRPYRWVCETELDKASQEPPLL
T1 sequence (looked up) 2: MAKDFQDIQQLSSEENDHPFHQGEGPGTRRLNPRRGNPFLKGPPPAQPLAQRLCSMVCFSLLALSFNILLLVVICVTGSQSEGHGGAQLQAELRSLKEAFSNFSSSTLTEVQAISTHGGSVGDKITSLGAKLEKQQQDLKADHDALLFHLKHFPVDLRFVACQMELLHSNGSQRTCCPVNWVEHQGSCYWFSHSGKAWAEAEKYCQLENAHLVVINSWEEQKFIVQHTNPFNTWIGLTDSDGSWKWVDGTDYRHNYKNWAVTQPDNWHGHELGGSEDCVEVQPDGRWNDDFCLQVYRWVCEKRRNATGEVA
Put plainly: radiolabelled ligand binding to hepatoma cell lines; HepG2 identified as receptor-expressing.

Chains of the proteins cited; added tags and fusions are not shown. Lines headed by an entry give the natural chain unless they say otherwise; changes in a name come on top.
UniProt P02763: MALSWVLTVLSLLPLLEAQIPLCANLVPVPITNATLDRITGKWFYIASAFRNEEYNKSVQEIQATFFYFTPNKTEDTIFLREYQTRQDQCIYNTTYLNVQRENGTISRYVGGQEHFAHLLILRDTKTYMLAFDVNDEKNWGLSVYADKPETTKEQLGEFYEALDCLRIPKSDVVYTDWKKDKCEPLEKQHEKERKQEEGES

No constants are given. Whether binding was seen depends on the method and setting. Some entries that bind do so weakly or less than the wild type.

As to “[^121I]-labeled asialo-orsomucoid (from UniProt P02763 19-201) (ligand)”, the binding entry is listed as “binds”.

The values are drawn from patent publication EP0866654B1.
